This passage reports mortality results from patent US4178442A, “Novel cinnamoyles piperazines and homopiperazines, the method of preparing them and their application in therapeutics” (Delalande S. A., priority 1977, dated 1979).

This data set in a line: in vivo. The following applies: iv, 180 mg/kg i.v., read-out: Toxicity (Mortality). From the text:
*LD50 or percentage of mortality which is given between brackets

Each structure is given as a SMILES string.

For `CCCCc1oc2ccccc2c1C(=O)c1cc(I)c(OCCN(CC)CC)c(I)c1` [AMIODARONE, reference compound], the mortality worked out at 50%.
